Earlier results in publication PMC8006131, “Pulse Dipolar EPR Reveals Double-Histidine Motif Cu^II−NTA Spin-Labeling Robustness against Competitor Ions” (The journal of physical chemistry letters, 2021).

Tested on: 6R1/28H/32H GB1
Parameters: method as in earlier work
Details: pH 7.4, cited from earlier work

Compound: O=C([O-])CN(CC(=O)[O-])CC(=O)[O-].[Cu+2] [Cu^II–NTA, Cu^II-nitrilotriacetic acid]
- n (stoichiometry of binding) (75 μM protein, 2 mM CuII-NTA): 1.20
- ΔH: -7.54 kcal/mol
